This is an account of results in publication PMC3177862, “Characterization of the Biosynthesis, Processing and Kinetic Mechanism of Action of the Enzyme Deficient in Mucopolysaccharidosis IIIC” (PLoS ONE, 2011).

The assay deals with T1, N-acetyltransferase beta-chain (44 kDa, Gly145-Ile635) with C-terminal His8Flag (human) (UniProt Q68CP4).
T1 sequence (chain, Asn-linked oligosaccharides (2 potential sites; complex type only)): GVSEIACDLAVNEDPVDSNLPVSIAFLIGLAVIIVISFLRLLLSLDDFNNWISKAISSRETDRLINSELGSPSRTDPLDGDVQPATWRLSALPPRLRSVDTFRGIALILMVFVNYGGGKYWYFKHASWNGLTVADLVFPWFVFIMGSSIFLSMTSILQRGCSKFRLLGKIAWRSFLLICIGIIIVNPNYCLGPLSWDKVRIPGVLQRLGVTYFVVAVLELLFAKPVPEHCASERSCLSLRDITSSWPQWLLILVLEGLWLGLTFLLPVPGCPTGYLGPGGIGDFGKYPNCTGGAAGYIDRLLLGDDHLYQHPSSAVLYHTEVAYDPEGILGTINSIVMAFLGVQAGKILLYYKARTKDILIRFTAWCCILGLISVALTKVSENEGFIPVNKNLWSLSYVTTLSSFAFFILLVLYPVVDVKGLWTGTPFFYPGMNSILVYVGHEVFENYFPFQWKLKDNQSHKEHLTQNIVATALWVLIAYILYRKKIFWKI
Put plainly: co-IP; DDM extract (diluted to 0.2% DDM) of stably transfected HeLa cells on mouse anti-Flag M2 affinity gel overnight at 4°C, washed with 0.02% DDM in TBS, eluted with FLAG peptide or SDS sample buffer; reducing SDS-PAGE, SYPRO Ruby stain and Western blots with Flag and N-terminal antibodies. Background: Immunoblotting shows a protein as a band on a membrane.

No constants are given. Whether binding was seen depends on the method and setting. In cells and extracts the contact can be indirect. Some results given as binding are weak or reduced against the parent protein; the word gives no strength. Where a sequence is shown, tags or fusion partners need not be part of it.

B1: N-acetyltransferase alpha-chain (27 kDa, Lys43-Asn144) (domain or fragment, UniProt Q68CP4-2 43-144)
chain: KKRHAELKMDQALLLIHNELLWTNLTVYWKSECCYHCLFQVLVNVPQSPKAGKPSAAAASVSTQHGSILQLNDTLEEKEVCRLEYRFGEFGNYSLLVKNIHN
modifications: Asn-linked oligosaccharides (3 potential sites; high mannose and complex types)
Turning to B1, the binding entry is “binds”.
